Source: PubChem BioAssay AID758 (NMMLSC, 2007)
Hit rate of the full screen: of about 190,000 compounds, about 110 (0.058%) were called active. This list was built around the results that the source calls inconclusive (neither active nor inactive); the mix of calls is not that of the screen.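 How the source made its calls: active means fluorescent GTP binding to Rab7 beads changed by at least 20 points from the 100% baseline, either direction, mostly lower; inconclusive means compound itself probably fluorescent, or too few beads counted; inactive means the rest.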

Tested on: Rab7 GTPase wild type (dog), Bodipy-FL-GTP binding
Test: modulators of GTP binding to Rab7, primary screen, biochemical, wildtype, multiplex bead flow cytometry (AID 758);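 further: median green fluorescence of bound Bodipy-FL-GTP per Rab7 bead population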
Conditions: GST-Rab7 beads, fluorescent GTP binding, at 10 µM, actives lie on both sides, untreated = 100%, excess cold GTP = 0%

Q: Which GTP binding activity (percent of control) does the source give for `Cc1nnc(SCC(=O)NCc2ccco2)n1-c1ccccc1` here?
A: inconclusive: 101%

Q: For `COc1ccc(/C=C/C(=O)Nc2ccc3nc4n(c(=O)c3c2)CCCC4)cc1OC`, which GTP binding activity (percent of control) is on record?
A: inconclusive: 90%

Q: Which GTP binding activity (percent of control) does the source give for `COC(=O)CC1C(=O)NCCN1C(=O)CSc1nnnn1-c1ccc(Cl)cc1` (stereo unspecified) here?
A: inactive: 96%

Q: For `CC(C)Cn1c(N)c(-c2nc(C(C)C)c(C(=O)c3ccccc3F)s2)c(=O)n(C)c1=O`, which GTP binding activity (percent of control) is on record?
A: inactive: 99%

Q: For `Cc1nn(C)c(Sc2ccccc2N)c1[N+](=O)[O-]`, which GTP binding activity (percent of control) is on record?
A: inactive: 108%

Q: Which GTP binding activity (percent of control) does the source give for `O=S(=O)(c1ccc(F)cc1)n1ccc(-c2cccc(OCc3ccc(Cl)cc3Cl)c2)n1` here?
A: inconclusive: 96%

Q: `CCOC(=O)C1CCN(CC(=O)N(CC(C)C)c2c(N)n(CC(C)C)c(=O)[nH]c2=O)CC1` was tested. Which GTP binding activity (percent of control) did it give?
A: inactive: 104%

Q: With `CCCC(=O)c1c[nH]c(C(=O)NCc2ccco2)c1` as the compound, how does the GTP binding activity (percent of control) read?
A: inactive: 96%

Q: Which GTP binding activity (percent of control) does the source give for `COc1ccc(N(CC(=O)NN=C2CCCC2)S(=O)(=O)c2ccccc2)cc1` here?
A: inconclusive: 100%

Q: For `NC(=O)COC(=O)c1cccc2c1-c1ccccc1C2=O`, which GTP binding activity (percent of control) is on record?
A: inactive: 92%

Q: For `O=C(Cn1cnc2c(nnn2Cc2ccccc2)c1=O)NCC1CCCO1` (stereo unspecified), which GTP binding activity (percent of control) is on record?
A: inactive: 101%

Q: How did the GTP binding activity (percent of control) turn out when `Cn1c(SCc2ccccc2)nnc1-c1ccc2c(c1)OCO2` was run?
A: inconclusive: 101%

Q: With `COc1cc(-c2csc(CCn3nc(C)cc3C)n2)cc(OC)c1OC` as the compound, how does the GTP binding activity (percent of control) read?
A: inconclusive: 104%

Q: `O=C(NCC1CCCO1)c1onc(CSc2ccccc2)c1C(=O)O` (stereo unspecified) was tested. Which GTP binding activity (percent of control) did it give?
A: inconclusive: 95%

Q: Which GTP binding activity (percent of control) does the source give for `Cc1ccc(COC(=O)c2nn(C)c(=O)c3ccccc23)cc1` here?
A: inactive: 97%

Q: For `COc1ccc(OC)c(C(=O)CN2C(=O)NC(C)(c3ccccc3)C2=O)c1` (stereo unspecified), which GTP binding activity (percent of control) is on record?
A: inconclusive: 107%

Q: Which GTP binding activity (percent of control) does the source give for `Cc1ccc(NC(=O)CSCc2n[nH]c(=O)[nH]2)c(Br)c1` here?
A: inactive: 98%

Q: For `O=S(=O)(c1ccc2ncn(O)c2c1)N1CCOCC1`, which GTP binding activity (percent of control) is on record?
A: inactive: 100%

Q: For `Cc1ccc(Nc2c(F)c(F)c(F)c(F)c2C(=O)O)c(C)c1`, which GTP binding activity (percent of control) is on record?
A: active: 121% [activator]

Q: With `COc1ccc2c(Cl)c(-c3nnco3)sc2c1` as the compound, how does the GTP binding activity (percent of control) read?
A: inconclusive: 93%

Q: For `O=C(COC(=O)c1ccccc1NC(=O)c1ccco1)NC1CCS(=O)(=O)C1` (stereo unspecified), which GTP binding activity (percent of control) is on record?
A: inconclusive: 92%

Q: Which GTP binding activity (percent of control) does the source give for `CN(CC1COc2ccccc2O1)C(=O)c1ccc(N(C)C)cc1` (stereo unspecified) here?
A: inconclusive: 96%

Q: Which GTP binding activity (percent of control) does the source give for `COc1ccc2cc(C#N)c(SCC(=O)N3CCCC3)nc2c1` here?
A: inconclusive: 95%

Q: With `Cc1nn(C)c(C(=O)Nc2ccc(S(=O)(=O)NC34CC5CC(CC(C5)C3)C4)cc2)c1Br` as the compound, how does the GTP binding activity (percent of control) read?
A: inactive: 97%

Q: `CCOc1cc(OCC)cc(C(=O)NCCCN2CCOCC2)c1` was tested. Which GTP binding activity (percent of control) did it give?
A: inactive: 97%

Q: Which GTP binding activity (percent of control) does the source give for `COc1ccc(-c2nn3c(-c4ccco4)nnc3s2)cc1OC` here?
A: inactive: 88%

Q: `CCOc1ccc(S(=O)(=O)NC2CC2)cc1C(N)=O` was tested. Which GTP binding activity (percent of control) did it give?
A: inactive: 104%

Q: With `Cc1noc(/C=C/c2ccc(-c3ccccc3Cl)o2)c1[N+](=O)[O-]` as the compound, how does the GTP binding activity (percent of control) read?
A: inconclusive: 132%

Q: With `CCSc1nc2ccc(C)cc2cc1C#N` as the compound, how does the GTP binding activity (percent of control) read?
A: inconclusive: 94%

Q: Which GTP binding activity (percent of control) does the source give for `Cc1cc([N+](=O)[O-])ccc1N=Nc1c(N)[nH]n(-c2ccccc2)c1=O` here?
A: inactive: 99%

Q: How did the GTP binding activity (percent of control) turn out when `Cc1cccc(C(=O)Nc2ccc(CC(=O)O)cc2)c1` was run?
A: inconclusive: 95%

Q: How did the GTP binding activity (percent of control) turn out when `COCCn1cc(C(=O)NCCCN2CCC(C)CC2)c2c3ccccc3n(C)c2c1=O` was run?
A: inconclusive: 106%

Q: `CCCCC(=O)Nc1ccc(NC(=S)NC(=O)CCCCl)cc1OC` was tested. Which GTP binding activity (percent of control) did it give?
A: inactive: 103%

Q: Which GTP binding activity (percent of control) does the source give for `CCOC(=O)c1sc2nc(-c3cccnc3)ccc2c1N` here?
A: inconclusive: 95%

Q: With `O=C(N/N=C/c1ccc(COc2ccc(Br)cc2)o1)c1ccco1` as the compound, how does the GTP binding activity (percent of control) read?
A: inconclusive: 88%

Q: Which GTP binding activity (percent of control) does the source give for `COc1ccccc1N1CCN(c2ccc(Cl)nn2)CC1` here?
A: inconclusive: 93%

Q: How did the GTP binding activity (percent of control) turn out when `Cc1c(C)n(CC(O)CN2CCOCC2)c2ccccc12` (stereo unspecified) was run?
A: inconclusive: 102%

Q: How did the GTP binding activity (percent of control) turn out when `CC(C)C(=O)n1nc(-c2cccnc2)nc1NCc1ccc(F)cc1` was run?
A: inconclusive: 99%

Q: `OCC1(Cc2ccccc2)CCCN(Cc2ccn[nH]2)C1` (stereo unspecified) was tested. Which GTP binding activity (percent of control) did it give?
A: inactive: 100%

Q: How did the GTP binding activity (percent of control) turn out when `COC(=O)[C@H]1C2CCC(C(=O)OC)(CC2)[C@H]1C(=O)OC` was run?
A: inconclusive: 100%

Q: `Cc1ccc(N=Nc2c(N)nn3c(N)c(C#N)c(C)nc23)cc1` was tested. Which GTP binding activity (percent of control) did it give?
A: inconclusive: 95%

Q: `Cc1noc(NS(=O)(=O)c2ccc(NC(=O)CCN3C(=O)c4ccccc4C3=O)cc2)c1C` was tested. Which GTP binding activity (percent of control) did it give?
A: inconclusive: 93%

Q: For `CCOC(=O)c1c(NC(=O)c2cccs2)sc(C(=O)N(C)C)c1C`, which GTP binding activity (percent of control) is on record?
A: inconclusive: 106%

Q: How did the GTP binding activity (percent of control) turn out when `Cc1cc(C)cc(NC(=O)C(=S)NCc2ccccc2)c1` was run?
A: inactive: 100%

Q: Which GTP binding activity (percent of control) does the source give for `COc1cccc(CN2CCC(C(=O)N3CCN(c4ccccc4F)CC3)CC2)c1OC` here?
A: inconclusive: 102%

Q: Which GTP binding activity (percent of control) does the source give for `Cc1cc(C(=O)N/N=C/c2cc(Br)ccc2OC(=O)c2ccc(Br)cc2)n[nH]1` here?
A: inconclusive: 101%

Q: How did the GTP binding activity (percent of control) turn out when `Cc1cccc(C2C3=C(Nc4[nH]n(-c5ccccc5)c(=O)c42)c2ccccc2C3=O)c1` (stereo unspecified) was run?
A: inconclusive: 94%

Q: How did the GTP binding activity (percent of control) turn out when `COC(=O)c1cn(C(=O)c2cccc(C)c2)c2ccccc12` was run?
A: inconclusive: 98%

Q: With `Cc1nonc1OCCNc1ccc([N+](=O)[O-])cc1[N+](=O)[O-]` as the compound, how does the GTP binding activity (percent of control) read?
A: inconclusive: 363%

Q: For `CCCCOC(=O)Nc1nnc(CC)s1`, which GTP binding activity (percent of control) is on record?
A: inconclusive: 105%

Q: How did the GTP binding activity (percent of control) turn out when `CCc1cc2c(=O)n(CCC(C)C)c(=S)[nH]c2s1` was run?
A: inactive: 102%

Q: For `O=C(NC1=NCCS1)c1ccc(Cl)s1`, which GTP binding activity (percent of control) is on record?
A: inconclusive: 100%

Q: For `Cc1cccn2c(=O)c(/C=N/O)c(N3CCOCC3)nc12`, which GTP binding activity (percent of control) is on record?
A: inconclusive: 105%

Q: With `CCCOc1ccc(N2C(=O)CC(N(CCc3ccc(OC)cc3)C(=O)/C=C/C(=O)O)C2=O)cc1` (stereo unspecified) as the compound, how does the GTP binding activity (percent of control) read?
A: inconclusive: 96%

Q: `CC1Cc2nc(SCC(=O)Nc3ccc(F)cc3)n(C)c(=O)c2S1` (stereo unspecified) was tested. Which GTP binding activity (percent of control) did it give?
A: inconclusive: 93%

Q: `CCOc1ccc(C(=S)N2CCOCC2)cc1OC` was tested. Which GTP binding activity (percent of control) did it give?
A: inconclusive: 97%

Q: With `CCCCOCC1CC(CC#CCN2CCCCC2)C(=O)O1` (stereo unspecified) as the compound, how does the GTP binding activity (percent of control) read?
A: inconclusive: 88%

Q: How did the GTP binding activity (percent of control) turn out when `Cc1ccc(NC(=O)CN2C(=O)N/C(=C/c3ccc(C)o3)C2=O)cc1` was run?
A: inconclusive: 113%

Q: For `CC(=O)c1cccc(NC(=O)NCc2cccs2)c1`, which GTP binding activity (percent of control) is on record?
A: inconclusive: 95%

Q: Which GTP binding activity (percent of control) does the source give for `OC(c1ccccc1)c1nccn1Cc1ccccc1` (stereo unspecified) here?
A: inconclusive: 101%

Q: `O=C(CCS(=O)NCc1ccccc1)NCc1ccccc1` (stereo unspecified) was tested. Which GTP binding activity (percent of control) did it give?
A: inactive: 103%
